This note sets out measurements from doi:10.1101/2023.06.26.546636.

The target in this experiment is B. fragilis Cmr3 (Bacteroides fragilis). Kind of experiment: co-purification.

No constants are given. Whether binding was seen depends on the method and setting. Binding seen in cells or lysates may run through a third protein. Binding calls can cover weak binding; strength is not graded here.

B1: B. fragilis Cmr4 (protein, UniProt A0A9X9NER2 1-279)
chain: MTTRMYVINTLSNMHVGSGEVNYGVIDNLIQRDSVTNLPNINSSGLKGAIREYFKENEDLVRELFGSAPRDEKTLPGKVRFFEANLLSMPVRSDKVPFLMAISDEVLQELITKMKFFNCEEATQYISHLSTLLDNIKTQAQGTDFAYVFDPLLQGAIIEEVSIRATCPSHIPLQPSLKKLLGDRLVILSHKYFSILSDDNHLPVLSRNNLENGQSANLWYEQVLPRYSRLYFMLMDGNAQSEYLKKFRDTLCTPSTIIQIGANASIGYGYCQISELSPF
For the molecule B1, the binding entry is reported as “binds”.

B2: B. fragilis Cmr6 (protein, UniProt A0A2M9V7I0 1-314)
chain: MPKNYTLQNASNLGWLFYKDYYRQEPNVDFISTQGKESDTTADFFRKTNQRITAYQLNSESPLVAAFNNHFGTPLQLKTIYPGLITGSGLPHQTGSKGEFKLGFQFDYTTGLPYIPGSSIKGTLRSMFPFSLKDKGSTKRILPEYRKERMEYIRDLIIEVTNINEISDTEIQALEYAIFTNSTPSGKTIEFSLEEKDVFYDAFVADSKDGVMLSDDYITPHGENPLKDPKPILFLKIRPDVTINFYFKLCTTHLYKEKVCSSKQIEEIKKQNDFSSSDYKMITAHQKRNLFEKILLCIGIGAKTNIGYGQLKKL
Take B2: the binding entry is reported as “binds”.
